# Measurements published in the supplement of paper PMC10849652.
# Chains of the proteins cited; added tags and fusions are not shown. Lines headed by an entry give the natural chain unless they say otherwise; changes in a name come on top.
# UniProt Q9P2E5: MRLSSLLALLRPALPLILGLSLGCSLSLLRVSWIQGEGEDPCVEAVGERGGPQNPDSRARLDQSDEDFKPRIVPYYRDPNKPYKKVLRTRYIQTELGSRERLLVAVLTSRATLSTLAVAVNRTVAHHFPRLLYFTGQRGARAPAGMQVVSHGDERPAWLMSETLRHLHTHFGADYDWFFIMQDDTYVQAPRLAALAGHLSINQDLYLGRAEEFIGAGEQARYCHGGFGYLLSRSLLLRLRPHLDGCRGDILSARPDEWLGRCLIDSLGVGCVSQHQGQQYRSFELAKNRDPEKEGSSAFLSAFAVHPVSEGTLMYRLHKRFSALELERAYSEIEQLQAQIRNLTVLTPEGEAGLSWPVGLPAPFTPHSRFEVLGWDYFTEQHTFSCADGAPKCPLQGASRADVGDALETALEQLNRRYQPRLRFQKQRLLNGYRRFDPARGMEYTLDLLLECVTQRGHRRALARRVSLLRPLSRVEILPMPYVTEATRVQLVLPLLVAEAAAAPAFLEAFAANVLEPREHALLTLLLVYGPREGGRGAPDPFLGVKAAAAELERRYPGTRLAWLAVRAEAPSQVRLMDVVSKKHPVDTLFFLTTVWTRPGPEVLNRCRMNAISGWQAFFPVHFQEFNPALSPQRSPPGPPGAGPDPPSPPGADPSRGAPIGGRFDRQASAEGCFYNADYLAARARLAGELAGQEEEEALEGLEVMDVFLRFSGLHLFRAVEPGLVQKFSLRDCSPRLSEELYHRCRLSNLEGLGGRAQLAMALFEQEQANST
# UniProt Q9P003: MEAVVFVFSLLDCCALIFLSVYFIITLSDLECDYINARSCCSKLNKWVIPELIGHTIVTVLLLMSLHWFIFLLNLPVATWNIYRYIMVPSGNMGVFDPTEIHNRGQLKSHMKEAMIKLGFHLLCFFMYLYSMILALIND
# UniProt Q9NPF2: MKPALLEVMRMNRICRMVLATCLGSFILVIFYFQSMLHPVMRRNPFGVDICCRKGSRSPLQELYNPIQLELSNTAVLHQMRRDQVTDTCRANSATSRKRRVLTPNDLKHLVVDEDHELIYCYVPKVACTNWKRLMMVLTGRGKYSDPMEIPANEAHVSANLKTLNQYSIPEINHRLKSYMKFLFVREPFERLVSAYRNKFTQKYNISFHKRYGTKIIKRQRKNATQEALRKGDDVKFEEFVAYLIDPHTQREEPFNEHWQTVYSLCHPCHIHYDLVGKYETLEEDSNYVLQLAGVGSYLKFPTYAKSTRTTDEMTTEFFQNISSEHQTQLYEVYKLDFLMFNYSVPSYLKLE
# UniProt Q14011: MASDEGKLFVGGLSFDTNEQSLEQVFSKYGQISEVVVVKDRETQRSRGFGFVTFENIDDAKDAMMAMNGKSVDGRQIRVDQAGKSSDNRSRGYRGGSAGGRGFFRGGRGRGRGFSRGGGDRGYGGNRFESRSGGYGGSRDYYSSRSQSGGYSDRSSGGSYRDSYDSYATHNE
# UniProt Q92989: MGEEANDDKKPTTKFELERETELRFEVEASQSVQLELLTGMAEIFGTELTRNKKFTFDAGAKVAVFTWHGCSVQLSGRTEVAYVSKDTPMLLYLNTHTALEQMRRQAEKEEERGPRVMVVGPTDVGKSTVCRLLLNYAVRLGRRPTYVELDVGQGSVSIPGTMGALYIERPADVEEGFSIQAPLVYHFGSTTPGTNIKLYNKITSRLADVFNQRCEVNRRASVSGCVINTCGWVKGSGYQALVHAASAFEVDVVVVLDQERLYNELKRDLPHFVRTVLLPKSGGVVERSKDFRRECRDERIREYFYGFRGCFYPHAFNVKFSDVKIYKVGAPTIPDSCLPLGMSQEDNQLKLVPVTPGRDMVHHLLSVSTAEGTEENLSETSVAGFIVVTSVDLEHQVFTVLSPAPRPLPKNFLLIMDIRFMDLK
# UniProt O15111: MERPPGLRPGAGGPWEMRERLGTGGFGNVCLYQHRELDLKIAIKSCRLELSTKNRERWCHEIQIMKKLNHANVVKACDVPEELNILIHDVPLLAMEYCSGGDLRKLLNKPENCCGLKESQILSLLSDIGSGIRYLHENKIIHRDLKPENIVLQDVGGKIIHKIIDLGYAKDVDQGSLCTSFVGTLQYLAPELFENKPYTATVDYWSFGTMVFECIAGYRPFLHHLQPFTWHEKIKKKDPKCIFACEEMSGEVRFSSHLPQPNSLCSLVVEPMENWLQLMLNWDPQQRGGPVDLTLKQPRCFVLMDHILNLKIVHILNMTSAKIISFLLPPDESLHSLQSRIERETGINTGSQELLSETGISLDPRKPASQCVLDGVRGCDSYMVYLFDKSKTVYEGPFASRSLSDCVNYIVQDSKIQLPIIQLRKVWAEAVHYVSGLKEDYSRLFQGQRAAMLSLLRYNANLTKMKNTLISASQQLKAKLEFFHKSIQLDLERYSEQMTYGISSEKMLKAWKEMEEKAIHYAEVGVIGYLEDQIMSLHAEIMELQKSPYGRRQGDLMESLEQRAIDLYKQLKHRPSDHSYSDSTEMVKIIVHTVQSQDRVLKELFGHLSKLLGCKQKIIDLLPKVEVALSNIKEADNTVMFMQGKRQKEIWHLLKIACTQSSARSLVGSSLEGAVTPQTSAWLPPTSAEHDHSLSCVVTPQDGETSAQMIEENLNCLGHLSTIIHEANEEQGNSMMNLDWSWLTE
# UniProt Q96F85: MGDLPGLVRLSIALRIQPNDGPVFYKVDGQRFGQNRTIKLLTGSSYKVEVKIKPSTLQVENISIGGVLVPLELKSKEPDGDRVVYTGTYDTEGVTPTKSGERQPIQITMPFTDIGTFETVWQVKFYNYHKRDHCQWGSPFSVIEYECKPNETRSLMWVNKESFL
# UniProt Q96MW5: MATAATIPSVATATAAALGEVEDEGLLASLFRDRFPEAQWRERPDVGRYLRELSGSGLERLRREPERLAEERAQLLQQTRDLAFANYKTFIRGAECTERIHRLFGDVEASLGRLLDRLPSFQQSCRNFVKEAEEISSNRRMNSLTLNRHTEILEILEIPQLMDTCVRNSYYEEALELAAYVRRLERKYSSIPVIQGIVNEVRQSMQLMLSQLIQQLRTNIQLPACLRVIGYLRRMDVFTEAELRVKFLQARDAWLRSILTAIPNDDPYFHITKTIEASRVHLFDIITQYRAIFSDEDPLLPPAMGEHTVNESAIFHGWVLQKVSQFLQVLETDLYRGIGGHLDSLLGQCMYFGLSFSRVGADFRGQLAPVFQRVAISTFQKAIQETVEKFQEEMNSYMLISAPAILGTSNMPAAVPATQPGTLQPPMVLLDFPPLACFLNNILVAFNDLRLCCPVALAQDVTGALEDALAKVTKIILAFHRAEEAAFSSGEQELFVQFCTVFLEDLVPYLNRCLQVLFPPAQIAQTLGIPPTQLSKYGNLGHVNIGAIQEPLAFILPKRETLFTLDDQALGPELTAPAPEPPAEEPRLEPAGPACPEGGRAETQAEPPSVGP
# UniProt P62633: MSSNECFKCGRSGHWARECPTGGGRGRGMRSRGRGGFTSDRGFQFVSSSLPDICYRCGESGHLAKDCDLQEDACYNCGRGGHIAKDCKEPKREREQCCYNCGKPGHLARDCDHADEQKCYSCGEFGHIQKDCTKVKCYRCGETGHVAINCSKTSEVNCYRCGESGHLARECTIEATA
# UniProt Q9Y2V7: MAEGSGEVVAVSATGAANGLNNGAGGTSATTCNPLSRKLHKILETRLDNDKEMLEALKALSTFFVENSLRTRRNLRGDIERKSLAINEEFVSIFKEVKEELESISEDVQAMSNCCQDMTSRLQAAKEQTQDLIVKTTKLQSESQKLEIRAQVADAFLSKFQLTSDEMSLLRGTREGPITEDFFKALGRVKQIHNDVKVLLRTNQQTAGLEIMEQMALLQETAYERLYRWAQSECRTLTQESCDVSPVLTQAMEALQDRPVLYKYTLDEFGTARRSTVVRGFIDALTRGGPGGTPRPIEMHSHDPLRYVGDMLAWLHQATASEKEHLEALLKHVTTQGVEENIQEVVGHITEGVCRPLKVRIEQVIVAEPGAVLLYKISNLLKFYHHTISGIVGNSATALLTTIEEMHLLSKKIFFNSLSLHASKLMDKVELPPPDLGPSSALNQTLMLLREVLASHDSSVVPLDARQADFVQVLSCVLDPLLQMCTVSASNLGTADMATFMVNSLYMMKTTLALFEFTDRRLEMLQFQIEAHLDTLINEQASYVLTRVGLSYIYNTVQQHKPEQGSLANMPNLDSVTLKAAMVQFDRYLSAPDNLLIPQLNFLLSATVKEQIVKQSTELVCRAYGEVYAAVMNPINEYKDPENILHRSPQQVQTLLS
# UniProt Q7Z7A1: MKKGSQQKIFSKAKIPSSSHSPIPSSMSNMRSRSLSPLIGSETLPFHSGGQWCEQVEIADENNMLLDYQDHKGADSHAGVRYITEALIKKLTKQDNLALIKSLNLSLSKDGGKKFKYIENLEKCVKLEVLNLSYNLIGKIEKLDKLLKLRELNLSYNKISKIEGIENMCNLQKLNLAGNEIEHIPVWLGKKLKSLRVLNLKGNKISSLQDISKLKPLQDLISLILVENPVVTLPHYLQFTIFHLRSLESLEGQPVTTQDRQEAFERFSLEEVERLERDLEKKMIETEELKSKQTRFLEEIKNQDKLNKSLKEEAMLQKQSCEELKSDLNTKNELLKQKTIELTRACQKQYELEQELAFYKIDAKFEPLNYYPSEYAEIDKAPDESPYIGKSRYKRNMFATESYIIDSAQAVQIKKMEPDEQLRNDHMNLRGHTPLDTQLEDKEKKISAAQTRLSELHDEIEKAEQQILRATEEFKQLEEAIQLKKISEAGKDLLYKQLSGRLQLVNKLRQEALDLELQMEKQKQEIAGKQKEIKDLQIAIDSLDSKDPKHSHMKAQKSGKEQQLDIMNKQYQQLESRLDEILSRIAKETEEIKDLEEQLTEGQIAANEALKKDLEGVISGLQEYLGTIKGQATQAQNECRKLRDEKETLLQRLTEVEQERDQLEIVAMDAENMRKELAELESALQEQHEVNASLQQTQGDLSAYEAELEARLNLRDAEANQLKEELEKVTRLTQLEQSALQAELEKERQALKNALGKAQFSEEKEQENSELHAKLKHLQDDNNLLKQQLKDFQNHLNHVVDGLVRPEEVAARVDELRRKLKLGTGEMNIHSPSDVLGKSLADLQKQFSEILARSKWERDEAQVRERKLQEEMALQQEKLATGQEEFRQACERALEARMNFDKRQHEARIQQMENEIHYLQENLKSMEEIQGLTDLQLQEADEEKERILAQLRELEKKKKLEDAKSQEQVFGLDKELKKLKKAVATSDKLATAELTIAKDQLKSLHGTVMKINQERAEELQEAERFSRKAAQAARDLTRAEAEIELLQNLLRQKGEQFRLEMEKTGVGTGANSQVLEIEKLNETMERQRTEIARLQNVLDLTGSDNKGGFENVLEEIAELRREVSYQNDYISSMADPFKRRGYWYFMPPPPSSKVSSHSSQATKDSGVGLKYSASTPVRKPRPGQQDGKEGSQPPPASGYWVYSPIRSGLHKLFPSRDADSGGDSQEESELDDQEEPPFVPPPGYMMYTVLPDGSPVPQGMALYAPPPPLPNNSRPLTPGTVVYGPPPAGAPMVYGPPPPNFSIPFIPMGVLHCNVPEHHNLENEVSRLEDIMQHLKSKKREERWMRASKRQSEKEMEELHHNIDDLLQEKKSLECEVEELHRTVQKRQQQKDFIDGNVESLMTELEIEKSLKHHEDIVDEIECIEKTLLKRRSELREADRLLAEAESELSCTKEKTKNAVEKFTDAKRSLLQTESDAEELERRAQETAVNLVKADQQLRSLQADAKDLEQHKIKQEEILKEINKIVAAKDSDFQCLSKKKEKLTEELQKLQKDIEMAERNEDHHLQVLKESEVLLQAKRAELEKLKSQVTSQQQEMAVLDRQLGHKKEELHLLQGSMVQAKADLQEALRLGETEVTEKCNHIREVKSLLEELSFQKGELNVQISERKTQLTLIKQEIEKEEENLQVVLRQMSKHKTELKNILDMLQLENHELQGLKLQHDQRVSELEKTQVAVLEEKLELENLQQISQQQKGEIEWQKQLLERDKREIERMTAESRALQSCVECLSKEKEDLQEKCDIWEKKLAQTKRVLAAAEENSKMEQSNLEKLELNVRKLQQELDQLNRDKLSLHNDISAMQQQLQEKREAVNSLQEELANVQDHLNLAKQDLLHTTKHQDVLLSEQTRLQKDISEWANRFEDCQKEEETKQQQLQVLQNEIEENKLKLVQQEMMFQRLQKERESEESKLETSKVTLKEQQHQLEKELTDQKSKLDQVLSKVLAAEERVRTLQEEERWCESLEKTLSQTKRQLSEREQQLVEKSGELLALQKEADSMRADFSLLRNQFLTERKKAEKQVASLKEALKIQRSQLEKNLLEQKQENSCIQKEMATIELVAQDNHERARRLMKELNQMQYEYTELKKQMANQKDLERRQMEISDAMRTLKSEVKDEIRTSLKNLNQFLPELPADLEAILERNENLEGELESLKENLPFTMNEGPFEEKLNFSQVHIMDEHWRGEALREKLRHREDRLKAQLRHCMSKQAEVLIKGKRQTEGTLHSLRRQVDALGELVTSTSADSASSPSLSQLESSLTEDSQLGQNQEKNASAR
# This is one part of the list.
# Columns and labels:
# Assay in all cases: log2 fold change, soluble protein after heating vs DMSO (PISA); higher = thermal stabilisation; K562 cells, 10 uM, 30 min; active = over 0.2 and 3.5 SD of the protein, either way, in both replicates (recomputed)
# [1] = compound: CS(=O)(=O)c1ccc(-c2cnc(N)c(C(=O)Nc3ccccc3)n2)cc1
# In short: (§1)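 K562 cells (2×10^6 cells/mL) were treated with 10 μM compound for 30 min, and aliquots were heated for 3 min over 48°C-58°C. Pooled aliquots were extracted in PBS with 0.5% NP-40 at 4°C, and the supernatant after 21,000xg for 90 min was measured by TMTpro 16plex LC-MS/MS with channel sums equalised. Reported thermal stability, relative to control samples and from duplicates, is a log2 fold change.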
# [2] = compound: C[C@@H]1COCCN1C2=NC(=NC(=C2)C3(CC3)S(=O)(=O)C)C4=C5C=CNC5=CC=C4
# In short: as §1
# [3] = compound: C[C@H](C1=CC=C(C=C1)C(=O)NC2=C3C=CNC3=NC=C2)N
# In short: as §1
# duvelisib = compound: C[C@H](Nc1ncnc2nc[nH]c12)c1cc2cccc(Cl)c2c(=O)n1-c1ccccc1 [duvelisib]
# In short: as §1
# gandotinib = compound: Cc1cc(Nc2cc(CN3CCOCC3)c3nc(C)c(Cc4ccc(Cl)cc4F)n3n2)n[nH]1 [gandotinib]
# In short: as §1
# tozasertib = compound: Cc1cc(Nc2cc(N3CCN(C)CC3)nc(Sc3ccc(NC(=O)C4CC4)cc3)n2)n[nH]1 [tozasertib]
# In short: as §1
# [4] = compound: Cc1cc(SCc2sc(-c3ccc(C(F)(F)F)cc3)nc2C)ccc1OCC(=O)O
# In short: as §1
# ispinesib = compound: Cc1ccc(C(=O)N(CCCN)[C@@H](c2nc3cc(Cl)ccc3c(=O)n2Cc2ccccc2)C(C)C)cc1 [ispinesib]
# In short: as §1
# crizotinib = compound: C[C@@H](Oc1cc(-c2cnn(C3CCNCC3)c2)cnc1N)c1c(Cl)ccc(F)c1Cl [crizotinib]
# In short: as §1
# doramapimod = compound: Cc1ccc(-n2nc(C(C)(C)C)cc2NC(=O)Nc2ccc(OCCN3CCOCC3)c3ccccc23)cc1 [doramapimod]
# In short: as §1
Target,log2 fold change [1],log2 fold change [2],log2 fold change [3],log2 fold change (duvelisib),log2 fold change (gandotinib),log2 fold change (tozasertib),log2 fold change [4],log2 fold change (ispinesib),log2 fold change (crizotinib),log2 fold change (doramapimod)
CHPF2 (UniProt Q9P2E5),inactive: 0.082,inactive: -0.099,inactive: 0.177,inactive: -0.078,inactive: -0.033,inactive: -0.098,inactive: 0.037,inactive: -0.056,,
CNIH4 (UniProt Q9P003),inactive: 0.021,,inactive: -0.143,inactive: 0.162,,inactive: 0,inactive: -0.057,inactive: 0.012,inactive: -0.111,inactive: -0.012
CNN1 (UniProt P51911),inactive: -0.052,inactive: 0.045,inactive: -0.121,,active: -0.673,,,,,
COL18A1 (UniProt P39060),inactive: -0.205,inactive: -0.244,inactive: 0.126,inactive: 0.06,inactive: 0.077,inactive: 0.005,inactive: -0.019,inactive: -0.078,,
CLN6 (UniProt Q9NWW5),inactive: -0.007,inactive: 0.055,inactive: -0.078,,,inactive: -0.063,,inactive: -0.049,,
CLIP1 isoform 2 (UniProt P30622),inactive: -0.014,inactive: 0.072,inactive: -0.01,,inactive: 0.105,,,inactive: 0.034,,
CLPTM1L (UniProt Q96KA5),inactive: 0.036,inactive: 0.025,inactive: -0.013,,active: -0.268,,inactive: 0,active: -0.326,inactive: -0.08,inactive: -0.012
CHST11 (UniProt Q9NPF2),inactive: 0.056,inactive: -0.037,inactive: 0.019,,inactive: 0.029,,,inactive: -0.068,inactive: -0.106,inactive: 0.087
CLCN5 isoform 2 (UniProt P51795),,,inactive: -0.123,,inactive: -0.083,,inactive: -0.049,active: -0.419,inactive: -0.321,inactive: -0.03
CHST14 (UniProt Q8NCH0),,inactive: 0.002,inactive: 0.006,inactive: -0.06,inactive: -0.049,inactive: -0.112,inactive: -0.059,inactive: -0.118,inactive: -0.122,inactive: 0.06
CMC4 (UniProt P56277),,,inactive: -0.11,inactive: 0.212,inactive: -0.029,,inactive: 0.013,inactive: -0.057,inactive: 0.189,inactive: 0.11
CIRBP (UniProt Q14011),,inactive: -0.076,inactive: 0.238,inactive: -0.072,inactive: 0.266,inactive: -0.039,inactive: 0.129,,,
CNOT4 isoform 9 (UniProt O95628),,,active: 0.484,,inactive: -0.059,,inactive: -0.086,inactive: -0.102,inactive: -0.094,inactive: 0.274
CLP1 (UniProt Q92989),inactive: 0.027,,inactive: 0.057,,,inactive: -0.023,,,,
CHUK (UniProt O15111),,inactive: -0.294,inactive: 0.462,inactive: -0.034,inactive: 0.047,inactive: 0.256,inactive: 0.089,inactive: -0.29,,
CLN8 (UniProt Q9UBY8),inactive: -0.006,,inactive: 0.161,,inactive: -0.1,,inactive: -0.09,inactive: -0.15,,
COG7 (UniProt P83436),,inactive: -0.16,inactive: 0.205,inactive: -0.2,,,inactive: 0.164,inactive: -0.15,,
CLINT1 (UniProt Q14677),,,inactive: 0.005,,,,inactive: -0.155,,inactive: 0.166,inactive: 0.154
CNRIP1 (UniProt Q96F85),,inactive: 0.209,,,,,,inactive: -0.147,,
CMYA5 (UniProt Q8N3K9),inactive: 0.269,,inactive: 0.515,,,inactive: -0.241,,inactive: 0.088,,
CLYBL (UniProt Q8N0X4),,,,,inactive: -0.05,,,,,

# Quoted at random: 2 entries already listed
Target,log2 fold change [1],log2 fold change [2],log2 fold change [3],log2 fold change (duvelisib),log2 fold change (gandotinib),log2 fold change (tozasertib),log2 fold change [4],log2 fold change (ispinesib),log2 fold change (crizotinib),log2 fold change (doramapimod)
CLPTM1L (UniProt Q96KA5),inactive: 0.036,inactive: 0.025,inactive: -0.013,,active: -0.268,,inactive: 0,active: -0.326,inactive: -0.08,inactive: -0.012
CLP1 (UniProt Q92989),inactive: 0.027,,inactive: 0.057,,,inactive: -0.023,,,,

# Later entries.

Target,log2 fold change [1],log2 fold change [2],log2 fold change [3],log2 fold change (duvelisib),log2 fold change (gandotinib),log2 fold change (tozasertib),log2 fold change [4],log2 fold change (ispinesib),log2 fold change (crizotinib),log2 fold change (doramapimod)
CLASP2 (UniProt O75122),,,inactive: 0.155,,,,,inactive: -0.007,inactive: -0.21,inactive: 0.132
CKAP4 (UniProt Q07065),inactive: 0.072,,inactive: -0.144,inactive: 0.163,,inactive: -0.01,inactive: -0.056,inactive: 0.151,,
CLCNKB (UniProt P51801),,inactive: 0.103,inactive: -0.064,inactive: -0.004,inactive: -0.1,,inactive: -0.047,,inactive: 0.112,inactive: -0.038
CLN3 (UniProt Q13286),,inactive: 0.066,inactive: 0.071,,,,inactive: -0.085,inactive: -0.307,inactive: -0.327,inactive: -0.047
COA5 (UniProt Q86WW8),,inactive: 0.12,inactive: -0.233,inactive: 0.039,,,inactive: 0.058,,inactive: -0.273,inactive: -0.042
CKS2 (UniProt P33552),,,,,inactive: -0.272,,inactive: -0.038,,,
COG5 isoform 2 (UniProt Q9UP83),,,,,,,,inactive: -0.293,inactive: 0.036,inactive: 0.303
CNOT6 (UniProt Q9ULM6),inactive: -0.134,,inactive: 0.082,inactive: 0.167,inactive: -0.066,,inactive: 0.003,inactive: -0.15,,
CLSTN3 isoform 2 (UniProt Q9BQT9),,inactive: 0.024,,,inactive: -0.16,,,,,
COG8 (UniProt Q96MW5),,inactive: -0.031,inactive: 0.487,,,,,,inactive: -0.099,inactive: 0.102
CLEC11A (UniProt Q9Y240),,,,inactive: -0.004,inactive: -0.008,inactive: 0.154,inactive: 0.135,,,
CNEP1R1 isoform 2 (UniProt Q8N9A8),,,inactive: -0.001,,,inactive: -0.26,,,,
COG3 (UniProt Q96JB2),,inactive: -0.105,inactive: 0.363,inactive: -0.097,,,inactive: 0.261,inactive: -0.019,inactive: -0.061,inactive: 0.004
CHSY1 (UniProt Q86X52),,inactive: -0.315,,,,,,,,
CNBP (UniProt P62633),inactive: 0.083,,inactive: 0.096,inactive: 0.014,inactive: 0.165,,inactive: -0.089,,,
COG6 (UniProt Q9Y2V7),,,inactive: 0.323,inactive: -0.15,,inactive: 0.042,inactive: 0.188,inactive: 0.131,,
CNPY4 (UniProt Q8N129),inactive: 0.122,,inactive: -0.082,inactive: 0.028,inactive: 0.016,inactive: -0.11,inactive: 0.011,inactive: -0.042,,
CLDN6 (UniProt P56747),,,,inactive: -0.109,inactive: -0.205,,inactive: 0.027,,,
COL12A1 (UniProt Q99715),inactive: -0.279,inactive: 0.076,,,,inactive: -0.085,,inactive: -0.013,,
CNTRL (UniProt Q7Z7A1),inactive: -0.014,,inactive: 0.217,inactive: 0.001,,inactive: 0.141,inactive: 0.02,inactive: 0.029,,
